From patent US10398703B2, “Therapeutic compounds and uses thereof” (Kala Pharmaceuticals, Inc., priority 2013, dated 2019)
At least one structure is not confirmed: it was looked up by name or label, or the drawing left a doubt.

Test: Particle size of compounds milled with PLURONIC F127 as MPP, by dynamic light scattering
Assay type: physicochemical
Conditions: compound formulated as MPP, milled with PLURONIC F127 in DPBS; for Particle Size: dynamic light scattering

Row | SMILES | Polydispersity Index (PDI) | Particle Size
1 | COc1cc2c(Oc3ccc(NC(=O)Nc4cc(C)on4)c(Cl)c3)ncnc2cc1OCCCN1CCC2(CC1)COC2 [Compound 9] | 0.179 | 241 nm
2 | COc1cc2c(Oc3ccc(NC(=O)Nc4cc(C)ccc4F)c(Cl)c3)ncnc2cc1OCCCN1CCC2(CC1)COC2 [Compound 12] | 0.165 | 313 nm
3 | COc1cc2c(Oc3ccc(NC(=O)Nc4ccc(Cl)c(C(F)(F)F)c4)c(Cl)c3)ncnc2cc1OCCCN1CCC2(CC1)COC2 [Compound 15] | 0.247 | 137 nm
4 | COc1cc2c(Oc3ccc(NC(=O)Nc4ccsc4)c(Cl)c3)ncnc2cc1OCCCN1CCC2(CC1)COC2 [Compound 16] | 0.197 | 225 nm
5 | COc1cc2c(Oc3ccc(NC(=O)Nc4cc(C)ccc4F)c(Cl)c3)ccnc2cc1OCCCN1CCC2(CC1)COC2 [Compound 25] | 0.164 | 203 nm
6 | COc1cc2c(Oc3ccc(NC(=O)Nc4cc(C)on4)c(Cl)c3)ncnc2cc1OCCCC(=O)N1CCC2(CC1)COC2 [Compound 35] | 0.223 | 189 nm
7 | COc1cc2c(Oc3ccc(NC(=O)Nc4cc(C)ccc4F)c(Cl)c3)ncnc2cc1OCCCC(=O)N1CCC2(CC1)COC2 [Compound 38] | 0.211 | 242 nm
8 | COc1cc2c(Oc3ccc(NC(=O)Nc4cc(C)ccc4F)c(Cl)c3)ncnc2cc1OCCCOC1COC1 [Compound 48] | 0.166 | 167 nm
9 | COc1cc2c(Oc3ccc(NC(=O)Nc4cc(C)on4)c(Cl)c3)ncnc2cc1OCCCOC1COC1 [Compound 49] | 0.133 | 222 nm
10 | COc1cc2ncnc(Oc3ccc(NC(=O)Nc4ccc(CN5CCN(C)CC5)cc4)c(Cl)c3)c2cc1OC [Compound 55] | 0.314 | 190 nm
